The record followed here is paper PMC4489885.

By UniProt entry, the sequences of proteins in these tests, tags left out.
UniProt Q13283: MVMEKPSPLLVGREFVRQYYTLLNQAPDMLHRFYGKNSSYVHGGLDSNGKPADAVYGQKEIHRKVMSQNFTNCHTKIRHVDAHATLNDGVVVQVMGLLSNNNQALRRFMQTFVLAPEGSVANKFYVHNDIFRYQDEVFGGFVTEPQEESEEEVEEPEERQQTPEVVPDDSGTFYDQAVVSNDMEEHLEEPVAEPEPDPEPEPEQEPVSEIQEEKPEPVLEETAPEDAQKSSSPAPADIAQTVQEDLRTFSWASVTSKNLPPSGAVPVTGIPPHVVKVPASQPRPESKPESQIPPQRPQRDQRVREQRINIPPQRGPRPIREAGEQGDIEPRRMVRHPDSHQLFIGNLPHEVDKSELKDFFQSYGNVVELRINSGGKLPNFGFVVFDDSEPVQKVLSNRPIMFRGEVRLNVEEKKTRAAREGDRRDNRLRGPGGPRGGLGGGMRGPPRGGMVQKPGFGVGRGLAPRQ
UniProt Q9Y3Z3: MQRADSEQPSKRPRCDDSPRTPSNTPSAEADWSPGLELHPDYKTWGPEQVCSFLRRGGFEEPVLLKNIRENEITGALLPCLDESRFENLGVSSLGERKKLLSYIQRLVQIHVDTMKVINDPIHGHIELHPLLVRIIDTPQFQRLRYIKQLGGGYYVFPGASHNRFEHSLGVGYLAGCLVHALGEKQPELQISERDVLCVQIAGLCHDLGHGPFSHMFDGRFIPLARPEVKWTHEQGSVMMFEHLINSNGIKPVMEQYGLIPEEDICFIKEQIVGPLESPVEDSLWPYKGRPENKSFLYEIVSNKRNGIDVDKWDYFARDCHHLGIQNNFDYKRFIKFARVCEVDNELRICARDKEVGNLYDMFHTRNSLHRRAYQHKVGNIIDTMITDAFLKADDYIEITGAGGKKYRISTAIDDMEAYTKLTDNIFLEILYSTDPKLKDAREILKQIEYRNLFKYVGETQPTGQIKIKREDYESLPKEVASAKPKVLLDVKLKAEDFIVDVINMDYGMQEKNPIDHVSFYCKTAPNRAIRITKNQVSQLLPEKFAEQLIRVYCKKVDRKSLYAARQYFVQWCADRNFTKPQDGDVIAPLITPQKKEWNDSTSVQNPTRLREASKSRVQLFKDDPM
UniProt Q9UN81: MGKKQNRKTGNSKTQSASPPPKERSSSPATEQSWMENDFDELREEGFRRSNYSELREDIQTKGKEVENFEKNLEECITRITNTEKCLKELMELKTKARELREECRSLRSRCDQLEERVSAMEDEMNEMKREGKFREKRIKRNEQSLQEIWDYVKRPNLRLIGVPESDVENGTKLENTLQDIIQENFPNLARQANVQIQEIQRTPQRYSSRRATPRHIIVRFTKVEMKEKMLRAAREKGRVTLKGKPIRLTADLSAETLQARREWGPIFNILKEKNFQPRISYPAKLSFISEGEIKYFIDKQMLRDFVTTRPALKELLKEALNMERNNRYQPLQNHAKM

Assay [1] concerns the target Myc-G3BP1 (UniProt Q13283). As to the kind of experiment: co-IP; HeLa co-transfected with Myc-G3BP1 and CMV-L1-neoRT; RIPA buffer; anti-Myc antibody and protein G-agarose; with or without RNase A; western blot for ORF1p. For orientation: In western blotting, separated proteins are transferred to a membrane and probed.
Assay [2] has as its target G3BP1 (endogenous) (human (endogenous in HeLa)) (UniProt Q13283). Put plainly: co-IP; HeLa co-transfected with CMV-L1-neoRT and with or without wild type Myc-SAMHD1 or SAMHD1-H233A; endogenous G3BP1 precipitated with anti-G3BP1 antibody, anti-rabbit IgG as control; western blot for ORF1.
The target of assay [3] is Myc-SAMHD1 (human) (human) (UniProt Q9Y3Z3). As to the kind of experiment: co-IP; HeLa co-transfected with Myc-SAMHD1 and ORF1-Flag; Myc-SAMHD1 precipitated with anti-Myc antibody; western blot for ORF1.
The target of assay [4] is Flag-ORF1p (LINE-1 ORF1 protein) (human) (UniProt Q9UN81). As to the kind of experiment: co-IP; HeLa co-transfected with Flag-ORF1p and CMV-L1-neoRT; lysis and washes in RIPA buffer; anti-Flag M2 precipitation, 4 h on ice; with or without RNase A (100 ug/mL, 37°C, 30 min); western blot for ORF1p and G3BP1.

No constants are given. Whether binding was seen depends on the method and setting. In cells and extracts the contact can be indirect. Some results given as binding are weak or reduced against the parent protein; the word gives no strength.

Turning to “LINE-1 ORF1p expressed from CMV-L1-neoRT (from UniProt Q9UN81 1-338)”, the binding result in assay [1] and in assay [2] was “binds” throughout.
As to “Flag-ORF1p (LINE-1 ORF1 protein) (from UniProt Q9UN81 1-338)”, the binding result in assay [3] is on record as “no binding”.
Take “G3BP1 (endogenous) (from UniProt Q13283 1-466)”: the binding result in assay [4] was “binds”.
